Laboratory results published in patent US20060008846A1 (RESEARCH DEVELOPMENT FOUNDATION, published 2006).
No constants are given. Whether binding was seen depends on the method and setting. Some results given as binding are weak or reduced against the parent protein; the word gives no strength.

The chains behind the UniProt entries cited, without tags or fusion partners. Residues count along the entry.
UniProt P27038, residues 20-513: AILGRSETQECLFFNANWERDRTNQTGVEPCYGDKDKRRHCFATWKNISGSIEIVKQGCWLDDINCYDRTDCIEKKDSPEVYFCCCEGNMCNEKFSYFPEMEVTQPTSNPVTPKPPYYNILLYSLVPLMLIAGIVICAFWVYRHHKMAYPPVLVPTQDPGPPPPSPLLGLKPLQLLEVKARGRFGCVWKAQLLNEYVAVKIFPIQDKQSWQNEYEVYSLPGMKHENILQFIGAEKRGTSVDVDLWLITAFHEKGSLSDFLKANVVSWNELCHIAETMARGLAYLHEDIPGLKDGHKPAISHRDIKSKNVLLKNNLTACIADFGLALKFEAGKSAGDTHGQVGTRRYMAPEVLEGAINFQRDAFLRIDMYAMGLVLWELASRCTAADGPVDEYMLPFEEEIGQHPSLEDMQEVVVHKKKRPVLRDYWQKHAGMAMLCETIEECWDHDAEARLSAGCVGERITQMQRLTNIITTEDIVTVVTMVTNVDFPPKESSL

Columns and labels:
[1] = molecular target: ActRII-myc transfected into 293T cells (UniProt P27038); experiment: DSS crosslinking of 125I-activin-A to 293T cells transfected with ActRII-myc, immunoprecipitation, autoradiography
[2] = molecular target: ActRII (type II activin receptor) transfected into 293T cells (UniProt P27038); experiment: competition binding, 125I-activin-A on intact 293T cells transfected with ActRII
[3] = molecular target: ActRII (type II activin receptor) transfected into 293T cells (UniProt P27038); experiment: competition binding on 293T cells transfected with ActRII (summing up of the earlier examples)
[4] = molecular target: ActRII-myc transfected into 293T cells (UniProt P27038); experiment: DSS crosslinking of 125I-M108A to 293T cells transfected with ActRII-myc, immunoprecipitation, autoradiography

binding [2] | Binder | further results
binds | activin-A I105E (ligand, human, UniProt P08476 311-426, looked up) GLECDGKVNICCKKQFFVSFKDIGWNDWIIAPSGYHANYCEGECPSHIAGTSGSSLSFHSTVINHYRMRGHSPFANLKSCCVPTKLRPMSMLYYDDGQNIIKKDEQNMIVEECGCS | –
binds | activin-A S60P (ligand, human, UniProt P08476 311-426, looked up) GLECDGKVNICCKKQFFVSFKDIGWNDWIIAPSGYHANYCEGECPSHIAGTSGSSLSFHPTVINHYRMRGHSPFANLKSCCVPTKLRPMSMLYYDDGQNIIKKDIQNMIVEECGCS | –
binds | activin-A I63P (ligand, human, UniProt P08476 311-426, looked up) GLECDGKVNICCKKQFFVSFKDIGWNDWIIAPSGYHANYCEGECPSHIAGTSGSSLSFHSTVPNHYRMRGHSPFANLKSCCVPTKLRPMSMLYYDDGQNIIKKDIQNMIVEECGCS | –
binds | activin-A M91E (ligand, human, UniProt P08476 311-426, looked up) GLECDGKVNICCKKQFFVSFKDIGWNDWIIAPSGYHANYCEGECPSHIAGTSGSSLSFHSTVINHYRMRGHSPFANLKSCCVPTKLRPMSELYYDDGQNIIKKDIQNMIVEECGCS | –
binds | activin-A M108E (ligand, human, UniProt P08476 311-426, looked up) GLECDGKVNICCKKQFFVSFKDIGWNDWIIAPSGYHANYCEGECPSHIAGTSGSSLSFHSTVINHYRMRGHSPFANLKSCCVPTKLRPMSMLYYDDGQNIIKKDIQNEIVEECGCS | –

Further lines, the binder ahead of its results:

Binder | binding [2] | further results
wild type activin-A (ligand, human, UniProt P08476 311-426, looked up, mature; As tracer it was radioiodinated by the chloramine T method; also called WT activin-A; wt activin-A) GLECDGKVNICCKKQFFVSFKDIGWNDWIIAPSGYHANYCEGECPSHIAGTSGSSLSFHSTVINHYRMRGHSPFANLKSCCVPTKLRPMSMLYYDDGQNIIKKDIQNMIVEECGCS | – | binding [1]: binds
A/C-2 chimeric activin A/activin C protein (ligand, human, UniProt P08476 311-426, looked up) GLECDGKVNICCKKQFFVSFKDIGWNDWIIAPSGYHANYCEGECPSHIAGTSGSSLSFHTAVLNLLKANTAAPFANLKSCCVPTKLRPMSMLYYDDGQNIIKKDIQNMIVEECGCS | binds | –
activin-A (M108A) (ligand, human, UniProt P08476 311-426, looked up, mature; Radioiodinated by the chloramine T method for the crosslinking study; also called M108A activin-A; M108A mutant) GLECDGKVNICCKKQFFVSFKDIGWNDWIIAPSGYHANYCEGECPSHIAGTSGSSLSFHSTVINHYRMRGHSPFANLKSCCVPTKLRPMSMLYYDDGQNIIKKDIQNAIVEECGCS | binds | binding [3]: binds; binding [4]: binds
